Laboratory results: publication PMC3873415, “A Non-Biological Method for Screening Active Components against Influenza Virus from Traditional Chinese Medicine by Coupling a LC Column with Oseltamivir Molecularly Imprinted Polymers” (PLoS ONE, 2013)
Read-outs that look alike come from different tables or passages of the source.

Assays:
[1] = OSMIP-LC column, cited from earlier work
[2] = Affinitive separation on OSMIP-LC column (retention time, LC-MS); design: key to Affinity: with or without affinity to the prepared column was defined by “1” or “0” respectively; with or without affinity to the prepared column was defined by “1” or “0” respectively; conditions: for Affinity: to the prepared OSMIP-LC column; for Retention time (approximately): OSMIP-LC column, control compound (Figure 3), MeOH-acetonitrile-formate acid 75:25:0.01, 0.075 ml/min

SMILES	Retention time (approximately) [1]	Retention time (approximately) ([1]; listed as OS)	Affinity [2]	Retention time (approximately) [2]
CCOC(=O)C1=C[C@@H](OC(CC)CC)[C@H](NC(C)=O)[C@@H](N)C1 [OS (template), Oseltamivir]	~140 min [30]	about 140 min	1	–
CC(=O)Oc1ccccc1C(=O)O [aspirin]	~35 min [30]	–	0	–
O=C(/C=C/c1ccc(O)c(O)c1)O[C@@H]1C[C@](O)(C(=O)O)C[C@@H](O)[C@H]1O [chlorogenic acid]	~35 min [30]	–	0	–
O=C1CCC[C@@H]2[C@H]3CCCN4CCC[C@@H](CN12)[C@@H]34 [matrine]	–	–	1	–
O=C1CCC[C@@H]2[C@H]3CCC[N+]4([O-])CCC[C@@H](CN12)[C@@H]34 (stereo partly shown) [oxymatrine]	–	–	1	~240 min (Figure 3B)
O=C1CCC[C@@H]2[C@H]3CCC[N+]4([O-])CCC[C@H](CN12)[C@@H]34 (stereo partly shown) [oxysophoridine]	–	–	1	~210 min (Figure 3D)
O=C1CCC[C@@H]2[C@H]3CCCN4CCC[C@H](CN12)[C@@H]34 [sophoridine]	–	–	1	–
